Assay [1] addresses human Vitamin D Receptor (VDR), VDR (gene 7421) (UniProt P11473). The assay can be described thus: ATG_VDR_TRANS: Attagene TRANS-FACTORIAL HepG2 Assay for human Vitamin D Receptor (VDR) (AID 2283022; active means hit-call score of the fitted dose curve at least 0.9, where 1 is the maximum). The method, boiled down:
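Fluorescence of labelled reporter cDNA fragments, resolved by capillary electrophoresis, gives mRNA induction after 24 h treatment of HepG2 cells carrying transfected Gal4-fusion reporter units. Activity is fitted in the positive direction with DMSO as baseline.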

Amino acid sequences for entries named in this document (tags omitted). A change or cut given only in a name is not applied to a line headed by its entry.
UniProt P11473: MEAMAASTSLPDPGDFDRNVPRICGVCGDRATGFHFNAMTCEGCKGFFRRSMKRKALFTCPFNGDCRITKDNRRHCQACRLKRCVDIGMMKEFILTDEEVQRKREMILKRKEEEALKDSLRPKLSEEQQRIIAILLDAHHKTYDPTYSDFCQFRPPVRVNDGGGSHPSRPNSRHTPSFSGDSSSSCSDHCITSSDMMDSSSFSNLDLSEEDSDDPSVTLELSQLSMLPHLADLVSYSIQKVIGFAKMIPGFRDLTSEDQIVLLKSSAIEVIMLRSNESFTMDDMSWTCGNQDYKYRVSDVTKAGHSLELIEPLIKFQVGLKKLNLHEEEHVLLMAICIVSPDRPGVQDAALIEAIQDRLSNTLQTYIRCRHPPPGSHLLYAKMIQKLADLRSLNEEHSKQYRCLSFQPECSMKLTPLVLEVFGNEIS
UniProt P10827: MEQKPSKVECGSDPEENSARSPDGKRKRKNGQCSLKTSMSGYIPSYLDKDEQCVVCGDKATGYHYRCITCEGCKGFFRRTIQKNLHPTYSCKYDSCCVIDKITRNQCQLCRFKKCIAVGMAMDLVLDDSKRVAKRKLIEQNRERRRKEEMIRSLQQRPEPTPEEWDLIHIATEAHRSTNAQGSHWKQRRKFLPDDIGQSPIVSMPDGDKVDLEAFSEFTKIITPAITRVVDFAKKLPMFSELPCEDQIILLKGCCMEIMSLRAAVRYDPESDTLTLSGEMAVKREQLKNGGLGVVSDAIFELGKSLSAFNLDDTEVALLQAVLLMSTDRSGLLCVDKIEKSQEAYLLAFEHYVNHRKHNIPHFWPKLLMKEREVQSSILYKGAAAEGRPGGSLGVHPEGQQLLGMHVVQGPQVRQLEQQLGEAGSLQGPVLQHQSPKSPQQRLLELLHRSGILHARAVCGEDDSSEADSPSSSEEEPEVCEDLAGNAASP
UniProt Q9UNQ0: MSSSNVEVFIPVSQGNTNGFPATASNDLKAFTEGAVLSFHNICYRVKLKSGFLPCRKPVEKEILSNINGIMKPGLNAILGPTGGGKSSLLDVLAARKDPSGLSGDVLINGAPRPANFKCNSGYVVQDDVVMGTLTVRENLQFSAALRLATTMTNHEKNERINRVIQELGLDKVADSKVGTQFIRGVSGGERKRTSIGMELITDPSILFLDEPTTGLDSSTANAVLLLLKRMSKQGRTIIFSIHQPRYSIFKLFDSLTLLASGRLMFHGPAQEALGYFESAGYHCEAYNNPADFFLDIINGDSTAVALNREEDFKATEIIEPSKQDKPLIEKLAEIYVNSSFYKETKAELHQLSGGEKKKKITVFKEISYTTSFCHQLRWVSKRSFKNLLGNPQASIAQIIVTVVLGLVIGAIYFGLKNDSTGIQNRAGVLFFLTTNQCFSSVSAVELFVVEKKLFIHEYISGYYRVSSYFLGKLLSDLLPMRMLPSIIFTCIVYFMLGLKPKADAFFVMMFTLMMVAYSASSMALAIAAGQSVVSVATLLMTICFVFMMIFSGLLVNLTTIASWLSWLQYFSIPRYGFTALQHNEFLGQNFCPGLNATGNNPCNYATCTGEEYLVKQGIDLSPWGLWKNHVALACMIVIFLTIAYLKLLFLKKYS
UniProt Q16236, whole entry, looked up: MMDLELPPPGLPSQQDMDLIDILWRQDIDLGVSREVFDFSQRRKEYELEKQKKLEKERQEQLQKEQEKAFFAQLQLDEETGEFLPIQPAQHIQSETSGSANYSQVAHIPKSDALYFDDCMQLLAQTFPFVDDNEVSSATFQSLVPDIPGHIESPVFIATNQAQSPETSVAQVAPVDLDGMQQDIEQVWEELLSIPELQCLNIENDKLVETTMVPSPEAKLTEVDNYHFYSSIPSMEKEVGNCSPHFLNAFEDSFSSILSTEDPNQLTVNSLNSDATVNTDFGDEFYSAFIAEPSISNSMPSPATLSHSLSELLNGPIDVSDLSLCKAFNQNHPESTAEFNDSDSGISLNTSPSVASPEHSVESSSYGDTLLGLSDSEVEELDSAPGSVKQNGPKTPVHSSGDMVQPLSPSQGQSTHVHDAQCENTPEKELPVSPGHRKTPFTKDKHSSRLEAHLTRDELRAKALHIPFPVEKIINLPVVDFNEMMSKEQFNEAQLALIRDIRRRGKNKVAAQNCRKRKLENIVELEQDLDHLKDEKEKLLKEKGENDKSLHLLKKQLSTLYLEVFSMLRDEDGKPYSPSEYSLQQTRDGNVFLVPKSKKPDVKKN

In assay [2] the target is human Thyroid Receptor alpha (THRa1), THRA (gene 7067) (UniProt P10827). Nature of the assay: ATG_THRa1_TRANS: Attagene TRANS-FACTORIAL HepG2 Assay for human Thyroid Receptor alpha (THRa1) (AID 2283014; active means hit-call score of the fitted dose curve at least 0.9, where 1 is the maximum). In short, it runs like this:
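First, HepG2 cells receive multiple GAL4-UAS reporter units and the chimeric receptor. They are then dosed for 24 h, after which RNA is reverse-transcribed, amplified, labelled, HpaI-cut and sized by capillary electrophoresis; gain relative to DMSO is scored.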

Read-out in assay [3]: Matrix Metallopeptidase 1 (MMP1), MMP1 (gene 4312)
Nature of the assay: BSK_BE3C_MMP1: BioMAP Diversity Plus: BE3C Assay for Matrix Metallopeptidase 1 (MMP1) Biomarker Activity (AID 2283024). Conditions: actives raise or lower the signal; primary human bronchial epithelial cells. The method, boiled down:
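Primary human bronchial epithelial cells were dosed with test chemicals, and MMP1 levels were measured by ELISA 24 h later. Data were fitted bidirectionally against DMSO as the negative control and activity baseline.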

Read-out in assay [4]: Tissue plasminogen activator (tPA), PLAT (gene 5327)
The assay can be described thus: BSK_BE3C_tPA: BioMAP Diversity Plus: BE3C Assay for Tissue plasminogen activator (tPA) Biomarker Activity (AID 2283041). Conditions: actives raise or lower the signal; primary human bronchial epithelial cells. The method, boiled down:
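Human primary bronchial epithelial cells were dosed with chemical and tPA biomarker levels measured by ELISA 24 hours later. Activity was fitted bidirectionally against DMSO as negative control and baseline.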

Read-out in assay [5]: Interferon-gamma inducible Protein 10 (IP10), CXCL10 (gene 3627)
The assay can be described thus: BSK_KF3CT_IP10: BioMAP Diversity Plus: KF3CT Assay for Interferon-gamma inducible Protein 10 (IP10) Biomarker Activity (AID 2283068). Conditions: actives raise or lower the signal; primary human keratinocytes with fibroblasts. In short, it runs like this:
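ELISA read-out of IP-10 after 24 h chemical dosing of human skin primary co-culture (keratinocytes, foreskin fibroblasts). Gain or loss of signal relative to DMSO, bidirectional curve fit.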

A short description of assay [6]: BSK_SAg_SRB: Viability Assessment in the BioMAP Diversity Plus: SAg Assay (AID 2283096).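 Further: cells read one day after compound addition; hits may be either gain or loss of signal compared with DMSO.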 Conditions: primary human HUVEC with PBMC. In short, it runs like this: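 Total protein by sulforhodamine B staining, 24 h after dosing, in HUVEC–PBMC co-culture; DMSO-referenced bidirectional fitting.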
Read-out in assay [7]: Monocyte Chemoattractant Protein-1 (MCP1), CCL2 (gene 6347)
The assay can be described thus: BSK_3C_MCP1: BioMAP Diversity Plus: 3C Assay for Monocyte Chemoattractant Protein-1 (MCP1) Biomarker Activity (AID 2283017). Conditions: actives raise or lower the signal; primary human endothelial cells (HUVEC). In short, it runs like this: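 Endothelial cells from human umbilical vein are dosed with chemical, cultured 24 h, then assayed for MCP-1 by ELISA; both increases and decreases are modelled against DMSO controls.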

Read-out in assay [8]: Human Leukocyte Antigen - DR isotype (HLADR), HLA-DRA (gene 3122)
Nature of the assay: BSK_3C_HLADR: BioMAP Diversity Plus: 3C Assay for Human Leukocyte Antigen - DR isotype (HLADR) Biomarker Activity (AID 2283019). Conditions: actives raise or lower the signal; primary human endothelial cells (HUVEC). The method, boiled down:
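Endothelial cells from human umbilical vein are treated with test chemical; after 24 h, HLA-DR levels are measured by ELISA. Data are fitted in both directions using DMSO as the baseline.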

Read-out in assay [9]: Macrophage colony-stimulating factor (MCSF), CSF1 (gene 1435)
Nature of the assay: BSK_hDFCGF_MCSF: BioMAP Diversity Plus: hDFCGF Assay for Macrophage colony-stimulating factor (MCSF) Biomarker Activity (AID 2283060). The following applies: actives raise or lower the signal; primary human foreskin fibroblasts. The method, boiled down: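 M-CSF levels, determined by ELISA, are taken at 24 h after dosing human skin fibroblasts. Responses in either direction are fitted with DMSO serving as the baseline.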

Read-out in assay [10]: Forkhead box O1 (FOXO1), FOXO1 (gene 2308)
The assay can be described thus: LTEA_HepaRG_FOXO1: Life Technologies and Expression Analysis (LTEA) Assay for Forkhead box O1 (FOXO1) using HepaRG (AID 2283456). The following applies: actives raise or lower the signal; mRNA level, 48 h. In short, it runs like this:
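Readout is FOXO1 transcript level by multiplexed qRT-PCR against three housekeeping genes, curve-fitted in both directions relative to 0.5% DMSO vehicle. Human HepaRG cultures received chemicals for 48 h, up to 100 uM in half-log steps.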

Read-out in assay [11]: Broad substrate specificity ATP-binding cassette transporter ABCG2 (Homo sapiens) (UniProt Q9UNQ0)
Nature of the assay: LTEA_HepaRG_ABCG2: Life Technologies and Expression Analysis (LTEA) Assay for ABC Transporter (ABCG2) using HepaRG (AID 2283465). Conditions: actives raise or lower the signal; mRNA level, 48 h. The method, boiled down:
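Read-out is ABCG2 mRNA induction or loss quantified by qRT-PCR after 48 h chemical treatment of human HepaRG cells, normalized to three housekeeping genes. Concentrations reached 100 uM top in half-log steps; fitting was bidirectional against 0.5% DMSO.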

Read-out in another assay: CYP4A11 (gene 1579)
The assay can be described thus: LTEA_HepaRG_CYP4A11: Life Technologies and Expression Analysis (LTEA) Assay for CYP4A11 using HepaRG (AID 2283486). The following applies: actives raise or lower the signal; mRNA level, 48 h. The method, boiled down:
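Readout is CYP4A11 mRNA induction or suppression (qRT-PCR, ACTB/GAPDH/POLR2A normalization) in human HepaRG cells after 48 h chemical treatment, concentrations to 100 uM in 0.5% DMSO, fitted bidirectionally against vehicle.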

Read-out in assay [12]: growth arrest and DNA damage 45 (GADD45G), GADD45G (gene 10912)
The assay can be described thus: LTEA_HepaRG_GADD45G: Life Technologies and Expression Analysis (LTEA) Assay for growth arrest and DNA damage 45 (GADD45G) using HepaRG (AID 2283499). The following applies: actives raise or lower the signal; mRNA level, 48 h. In short, it runs like this: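 Human hepatic HepaRG line treated 48 h with chemicals (eight concentrations, half-log steps from 100 uM); transcript induction or repression of GADD45G scored by qRT-PCR versus DMSO vehicle.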

Read-out in assay [13]: Potassium channel subfamily K member 1 (KCNK1), KCNK1 (gene 3775)
Nature of the assay: LTEA_HepaRG_KCNK1: Life Technologies and Expression Analysis (LTEA) Assay for Potassium channel subfamily K member 1 (KCNK1) using HepaRG (AID 2283511). The following applies: actives raise or lower the signal; mRNA level, 48 h. The method, boiled down: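 Gain or loss of KCNK1 mRNA is the read-out, quantified by qRT-PCR against three housekeeping genes after 48 h chemical treatment of human HepaRG liver cells. Concentrations ran from 100 uM downward in half-log steps, vehicle 0.5% DMSO.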

Read-out in assay [14]: Nuclear factor erythroid 2-related factor 2 (Homo sapiens) (UniProt Q16236)
Nature of the assay: LTEA_HepaRG_NFE2L2: Life Technologies and Expression Analysis (LTEA) Assay for Nuclear factor erythroid 2-related factor 2 (NFE2L2) Transcription Factor using HepaRG (AID 2283527).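 Further: TaqMan qRT-PCR transcript level normalised to ACTB GAPDH and POLR2A housekeeping genes.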 Conditions: actives raise or lower the signal; mRNA level, 48 h. The method, boiled down: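 Transcript level of NFE2L2 is the read-out, measured by microfluidic TaqMan qRT-PCR and normalized to three housekeeping genes. Human HepaRG cultures received test chemical for 48 h at up to 100 uM in half-log steps. Gain or loss of signal is fitted relative to 0.5% DMSO.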

Assay [15] can be described thus: CPHEA_Stoker_NIS_Cytotoxicity: Cytotoxicity Assessment for CPHEA's Radioactive Iodide Uptake (RAIU) Assay for Sodium/Iodide Symporter (NIS) Inhibition, Stoker and Laws Labs (AID 2283897; active means hit-call score of the fitted dose curve at least 0.9, where 1 is the maximum). The method, boiled down: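 hNIS-HEK293T-EPA human kidney cells were exposed for 2 hours at room temperature to test chemicals (0.001–100uM, 0.5% final DMSO) in HEPES-buffered HBSS, pH 7.4. Viability was read as ATP content by luciferase bioluminescence, loss of signal versus DMSO.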

Where “and” joins values, the source holds several entries; their conditions need not be identical. Equal entries are not always repeated. For some assays here: What follows is the remainder of the data, with few or none of the hits. The entries are a selection whose mix differs from that of the whole data set. Results filed as inconclusive are left out. A structure can be active in one record and inactive in another. Calls of active or inactive are those of the source. How the source made its calls, unless noted: active means hit-call score of the fitted dose curve at least 0.9, where 1 is the maximum; inactive means score below 0.9.

For the molecule `Nc1ccc(Cl)cc1C(=O)c1ccccc1`, the molecule was called inactive in assay [1].

For `[F][Sn]([c]1ccccc1)([c]1ccccc1)[c]1ccccc1`, the molecule was called inactive in assay [2].

As to `Nc1ccc(-c2ccccc2)cc1`, in assay [1], the molecule was classed as inactive.

With `O=[N+]([O-])c1cc(C(F)(F)F)c(Cl)c([N+](=O)[O-])c1Nc1ncc(C(F)(F)F)cc1Cl`, the outcome in [3] was inactive. Besides, the AC50 (in general, the midpoint of the concentration-response curve, whichever way the signal moves) was active: 2.48 µM in [4], active: 1.2 µM in assay [5] and active: 1.61 µM in assay [6].

Regarding `C=CCC1=C(C)C(OC(=O)C2C(C=C(C)C)C2(C)C)CC1=O` (configuration not stated), the AC50 was active: 31.9 µM and active: 30.6 µM in [7]; active: 31.7 µM in assay [8]; active: 30.9 µM in assay [9]; active: 30.9 µM in [11]; active: 79.7 µM with CYP4A11 (gene 1579); active: 34.9 µM in [15]. Moreover, the call in [10], in assay [12], in assay [13] and in assay [14] was inactive.

The values above are taken from PubChem BioAssay (EPA / NIEHS).
